# Results taken from the supplement of paper PMC9135407.
# Values joined by “and” are separate entries in the source; they are usually repeats but may differ in a detail not shown here. Equal values may be shown once. Where a name gives a salt, the structure may show the parent alone. ± gives the standard deviation of the averaged measurements. The list shows a part of the results. Baselines shift from plate to plate; read single values as rough.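 Assay uses culture-activated primary human stellate myofibroblasts; lipid droplet recovery indicates inactivation. Measured: proportion of Hoechst-counted cells over a plate-specific Bodipy cutoff, duplicate wells, DMSO and nortriptyline as per-plate negative and positive controls. A hit scores, control-normalized, above the plate's top-tenth-percentile nortriptyline wells or ranks among its three best wells. Final well concentrations not reported.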
# Test system: primary human hepatic stellate cells (donor 1)
# Test: percent Bodipy-positive cells; higher = more lipid droplet accumulation
# Details: 48 h
# Method: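 Primary lipid accumulation screen in primary human hepatic stellate cell myofibroblasts (donor 1, passage 8) in 384-well plates. 100 nL of library compound was pin-transferred into 30 µL medium in duplicate, and cells were treated for 48 h. The 'Scaled' score combines distance from plate baseline, toxicity and reproducibility penalties, and is normalised to nortriptyline (positive) and DMSO (negative) controls on each plate. A hit is defined as scaled >0.85 or among the top 3 wells per plate.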
# [1] = library stock concentration: 10 mM
# [2] = library stock concentration: 80 uM
# [3] = library stock concentration: 400 uM
# [4] = library stock concentration: 2 mM
# [5] = library stock concentration: 3.33 mM
# [6] = library stock concentration: 1 mM
structure (smiles),measurement,setting,value
NC(=O)CCCCC1CCSS1 (stereo not drawn),percent Bodipy-positive cells,[1],39.3 ± 8.3%
C=C(C)[C@H]1CC=C(C)CC1,percent Bodipy-positive cells,[1],34.7 ± 4%
CC(C)NC[C@@H](O)COc1ccc(CC(N)=O)cc1 [(R)-(+)-Atenolol],percent Bodipy-positive cells,,7.05 ± 0.093%
NS(=O)(=O)c1cc2c(cc1C(F)(F)F)NCNS2(=O)=O [Hydroflumethiazide],percent Bodipy-positive cells,,28.4 ± 3%
same,percent Bodipy-positive cells,library stock concentration: 6 mM,2.63 ± 0.91%
same,percent Bodipy-positive cells,[1],20.04 ± 0.13%
Cc1ncc(-c2ccnc(Nc3ccc(S(C)(=O)=O)cc3)n2)n1C(C)C,percent Bodipy-positive cells,[2],70.5 ± 3.5%
same,percent Bodipy-positive cells,[3],74 ± 3%
same,percent Bodipy-positive cells,[4],62.2 ± 11%
same,percent Bodipy-positive cells,[5],40.4 ± 6.4%
same,percent Bodipy-positive cells,[1],56.3% and 43.6%
COC1(C2=NCCN2)COc2ccccc2O1 (stereo not drawn),percent Bodipy-positive cells,[1],11.6% and 7.66%
c1([C@]2(C(=O)OC)c3c(c4c(cccc4)[nH]3)CN(CC5C2)CC(CC)=C5)cc6c(N(C)[C@]7([H])[C@]6(CC8)[C@]([H])(N89)[C@@](CC)(C=CC9)[C@@H](OC(=O)C)[C@]7(O)C(=O)OC)cc1OC.C(=O)(O)[C@H](O)[C@@H](O)C(=O)O.C(=O)(O)[C@H](O) (stereo partly drawn) [Vinorelbine Tartrate],percent Bodipy-positive cells,[5],99.01 ± 0.67%
same,percent Bodipy-positive cells,[1],99.83 ± 0.23%
CC(O)Cn1cnc2c1c(=O)n(C)c(=O)n2C (stereo not drawn) [Proxyphylline],percent Bodipy-positive cells,,8.63 ± 2.3%
CCCCC/C=C\C/C=C\C/C=C\C/C=C\CCCC(=O)OC(COCCCCCCCCCCCCCCCC)COP(=O)([O-])OCC[N+](C)(C)C (stereo not drawn) [Arachidonoyl PAF C-16],percent Bodipy-positive cells,[6],12.1 ± 3%
"Nc1cc(=O)[nH]c(N)n1 [2,4-Diamino-6-pyrimidinone]",percent Bodipy-positive cells,[1],27.8 ± 0.84%
O=C(OOC(=O)c1ccccc1)c1ccccc1 [Benzoyl peroxide],percent Bodipy-positive cells,library stock concentration: 8.3 mM,22.8 ± 14%
N[C@@H](Cc1c[nH]c2ccccc12)C(=O)O [Tryptophan],percent Bodipy-positive cells,[1],23.6 ± 1.5%
N[C@@H](Cc1c[nH]c2ccccc12)C(=O)O [L-Tryptophan],percent Bodipy-positive cells,[1],18.5 ± 5%
CCC1(C)OC(=O)N(C)C1=O (stereo not drawn),percent Bodipy-positive cells,[1],26.9 ± 0.42%
NC(=O)CCCCn1ccc(NC(N)=NCC(F)(F)F)n1,percent Bodipy-positive cells,[1],9.74 ± 0.82%
CCCCC[C@@](C)(O)/C=C/[C@H]1C(=O)C[C@H](O)[C@@H]1C/C=C\CCCC(=O)O [15(R)-15-methyl Prostaglandin D2],percent Bodipy-positive cells,[6],15.2 ± 3.8%
"CCCCC(C)(C)[C@H](O)/C=C/[C@H]1C=CC(=O)[C@@H]1CCCCCCC(=O)O [16,16-dimethyl Prostaglandin A1]",percent Bodipy-positive cells,[6],8.24 ± 0.51%
OCc1c[nH]c2ccccc12 [Indole-3-carbinol],percent Bodipy-positive cells,[5],11 ± 2.8%
same,percent Bodipy-positive cells,[1],22.4 ± 14%
COC(=O)C1=C(C)NC(C)=C([N+](=O)[O-])[C@H]1c1ccccc1C(F)(F)F,percent Bodipy-positive cells,[1],6.26 ± 1.6%
O=C(Nc1ccccc1)C12CC1C(=NO)c1ccccc1O2 (stereo not drawn),percent Bodipy-positive cells,[1],7.44 ± 2.6%
N#CCNC(=O)c1ccc(-c2ccnc(Nc3ccc(N4CCOCC4)cc3)n2)cc1,percent Bodipy-positive cells,[2],17.7 ± 4.7%
same,percent Bodipy-positive cells,[3],20.4 ± 3.8%
same,percent Bodipy-positive cells,[4],13 ± 1.3%
same,percent Bodipy-positive cells,[1],98.5 ± 2.1%
N#CCNC(=O)c1ccc(-c2ccnc(Nc3ccc(N4CCOCC4)cc3)n2)cc1 [Momelotinib (CYT387) (0.4 mM)],percent Bodipy-positive cells,[3],12.6 ± 6%
O=C(/C=C/c1ccc(O)cc1)c1ccc(O)cc1O [Isoliquiritigenin],percent Bodipy-positive cells,[5],8.73 ± 1.2%
Cc1c(NC(=O)c2cccnc2)c(=O)n(-c2ccccc2)n1C [Nifenazone],percent Bodipy-positive cells,,27.5 ± 7.6%
same,percent Bodipy-positive cells,[1],38.7 ± 6.2%
CS(=O)(=O)OCCCCOS(C)(=O)=O [Busulfan],percent Bodipy-positive cells,[5],9.72 ± 0.8%
same,percent Bodipy-positive cells,library stock concentration: 8.1 mM,4.43 ± 1.5%
same,percent Bodipy-positive cells,[1],11.8% and 12.3% and 23.8%
CN(C)C(=O)c1ccc(S(=O)(=O)c2ccc(NC(=O)C(C)(O)C(F)(F)F)c(Cl)c2)cc1 (stereo not drawn),percent Bodipy-positive cells,[5],37.3 ± 10%
same,percent Bodipy-positive cells,[1],33.2 ± 3.5%
CC[C@@H]1C(=O)OC[C@@H]1Cc1cncn1C,percent Bodipy-positive cells,[1],10.1 ± 2.1%
CC[C@@H]1C(=O)OC[C@@H]1Cc1cncn1C [Pilocarpine nitrate],percent Bodipy-positive cells,,27.4 ± 2.8%
same,percent Bodipy-positive cells,[1],20.5% and 27.1%
CC[C@@H]1C(=O)OC[C@@H]1Cc1cncn1C [(+)-Pilocarpine hydrochloride],percent Bodipy-positive cells,[1],23.1 ± 3.1%
CC[C@@H]1C(=O)OC[C@@H]1Cc1cncn1C [Pilocarpine HCl],percent Bodipy-positive cells,[5],12.3 ± 0.17%
same,percent Bodipy-positive cells,library stock concentration: 9.6 mM,10.2 ± 1.5%
same,percent Bodipy-positive cells,[1],41.8 ± 5.9%
CC[C@@H]1C(=O)OC[C@@H]1Cc1cncn1C [Pilocarpine hydrochloride],percent Bodipy-positive cells,[1],5.61 ± 0.33%
CN1CCc2c(c3ccccc3n2Cc2ccc(C(=O)NO)cc2)C1 [Tubastatin A HCl],percent Bodipy-positive cells,[5],13.4 ± 9.4%
same,percent Bodipy-positive cells,[1],56.2 ± 11%
CN1CCc2c(c3ccccc3n2Cc2ccc(C(=O)NO)cc2)C1 [Tubastatin A],percent Bodipy-positive cells,[5],7.94 ± 0.69%
same,percent Bodipy-positive cells,[1],6.35 ± 1.7%
CC(=N)NCCCC[C@H](N)C(=O)O [L-NIL hydrochloride],percent Bodipy-positive cells,[1],5.45 ± 0.95%
CN1C(=O)CC[C@H]1c1cccnc1 [Cotinine],percent Bodipy-positive cells,[1],8.13 ± 3.8%
same,percent Bodipy-positive cells,library stock concentration: 11.3 mM,2.62 ± 1.1%
CN1C(=O)CC[C@H]1c1cccnc1 [Cotinine (-)],percent Bodipy-positive cells,,24.3 ± 8.4%
O=C(O)CCC/C=C\C[C@@H]1[C@@H](/C=C/C(=O)CCc2ccccc2)[C@H](O)C[C@@H]1O [15-keto-17-phenyl trinor Prostaglandin F2.alpha.],percent Bodipy-positive cells,[6],13.5 ± 3.3%
Cc1c(CN2CCN(C(=O)[C@H](C)O)CC2)sc2c(N3CCOCC3)nc(-c3cnc(N)nc3)nc12,percent Bodipy-positive cells,[2],25.3 ± 8.9%
same,percent Bodipy-positive cells,[3],11.6 ± 3%
same,percent Bodipy-positive cells,[4],6.83 ± 1.8%
same,percent Bodipy-positive cells,[5],7.73 ± 2.8%
same,percent Bodipy-positive cells,[1],9.3% and 6.31%

# In a second layout: results already given.
structure (smiles) | measurement | setting | value
NS(=O)(=O)c1cc2c(cc1C(F)(F)F)NCNS2(=O)=O [Hydroflumethiazide] | percent Bodipy-positive cells |  | 28.4 ± 3%
same | percent Bodipy-positive cells | library stock concentration: 6 mM | 2.63 ± 0.91%
same | percent Bodipy-positive cells | [1] | 20.04 ± 0.13%
Cc1ncc(-c2ccnc(Nc3ccc(S(C)(=O)=O)cc3)n2)n1C(C)C | percent Bodipy-positive cells | [2] | 70.5 ± 3.5%
same | percent Bodipy-positive cells | [3] | 74 ± 3%
